# According to article doi:10.1101/2022.11.10.516022:
# T1: endogenous Perilipin 1 (Plin1) (mouse (endogenous in WAT and 3T3-L1 adipocytes)) (UniProt Q8CGN5)
# T1 sequence: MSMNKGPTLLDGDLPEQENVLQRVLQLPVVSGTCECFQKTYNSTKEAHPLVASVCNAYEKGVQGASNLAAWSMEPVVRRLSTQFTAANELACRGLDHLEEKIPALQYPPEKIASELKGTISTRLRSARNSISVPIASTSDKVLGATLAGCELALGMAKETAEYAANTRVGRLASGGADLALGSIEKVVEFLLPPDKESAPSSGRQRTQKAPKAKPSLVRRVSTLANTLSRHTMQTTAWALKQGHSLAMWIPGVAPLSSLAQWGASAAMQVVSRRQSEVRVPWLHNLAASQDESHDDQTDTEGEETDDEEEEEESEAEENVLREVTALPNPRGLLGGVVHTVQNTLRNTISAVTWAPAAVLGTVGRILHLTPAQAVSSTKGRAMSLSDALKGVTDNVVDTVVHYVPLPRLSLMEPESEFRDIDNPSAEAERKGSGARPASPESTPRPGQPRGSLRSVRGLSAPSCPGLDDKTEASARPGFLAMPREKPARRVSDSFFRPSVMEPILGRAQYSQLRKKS
# T2: Plin1SD (Plin1 S81, S222, S276 mutated to aspartate) (UniProt Q8CGN5)
# T2 sequence: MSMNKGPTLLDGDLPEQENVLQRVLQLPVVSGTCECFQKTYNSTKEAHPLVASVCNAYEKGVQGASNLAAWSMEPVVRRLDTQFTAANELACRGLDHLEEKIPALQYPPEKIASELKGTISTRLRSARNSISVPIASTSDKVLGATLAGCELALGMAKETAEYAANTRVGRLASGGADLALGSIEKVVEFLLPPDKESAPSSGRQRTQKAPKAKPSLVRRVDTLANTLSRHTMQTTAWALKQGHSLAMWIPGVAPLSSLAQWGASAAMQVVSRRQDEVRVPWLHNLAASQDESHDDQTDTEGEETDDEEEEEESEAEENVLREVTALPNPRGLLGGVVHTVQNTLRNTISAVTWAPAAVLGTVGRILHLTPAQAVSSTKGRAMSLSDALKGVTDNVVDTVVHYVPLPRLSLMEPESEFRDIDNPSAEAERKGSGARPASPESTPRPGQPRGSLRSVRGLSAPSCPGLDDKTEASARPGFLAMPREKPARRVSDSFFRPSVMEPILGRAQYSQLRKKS
# T3: Myc-tagged full-length Plin1 (F-Plin1) (UniProt Q8CGN5)
# T3 sequence: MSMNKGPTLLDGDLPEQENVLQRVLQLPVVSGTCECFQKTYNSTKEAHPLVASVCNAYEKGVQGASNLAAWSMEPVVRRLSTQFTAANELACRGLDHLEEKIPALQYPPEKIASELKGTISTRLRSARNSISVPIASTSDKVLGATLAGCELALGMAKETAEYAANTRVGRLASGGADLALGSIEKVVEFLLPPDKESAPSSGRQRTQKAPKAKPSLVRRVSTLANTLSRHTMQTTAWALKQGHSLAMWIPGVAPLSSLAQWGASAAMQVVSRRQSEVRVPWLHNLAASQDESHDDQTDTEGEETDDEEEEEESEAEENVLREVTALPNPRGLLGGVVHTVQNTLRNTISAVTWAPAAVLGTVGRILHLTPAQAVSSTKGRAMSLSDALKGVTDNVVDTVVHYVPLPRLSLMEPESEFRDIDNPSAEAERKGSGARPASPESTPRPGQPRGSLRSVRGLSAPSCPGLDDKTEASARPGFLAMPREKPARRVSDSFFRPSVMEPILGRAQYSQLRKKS
# Tests used:
# [1] = target: T1, endogenous Perilipin 1 (Plin1) (mouse (endogenous in WAT and 3T3-L1 adipocytes)); assay: co-IP
# [2] = target: T2, Plin1SD (Plin1 S81, S222, S276 mutated to aspartate); assay: co-IP
# [3] = target: T3, Myc-tagged full-length Plin1 (F-Plin1); assay: co-IP
# [4] = target: HA-tagged ApoL6 (adipoQ-ApoL6 TG transgene) (mouse); assay: co-IP
# [5] = target: Myc-tagged ApoL6 (aP2-ApoL6 TG transgene) (mouse); assay: co-IP
# [6] = target: ApoL6-HA overexpressed in differentiated 3T3-L1 adipocytes (mouse); assay: co-IP
# [7] = target: endogenous ApoL6 (mouse (endogenous in WAT)); assay: co-IP
# ApoL6-cVenus (mouse) = assay: split reporter
molecule,measurement,setting,value
Myc-tagged ApoL6 (aP2-ApoL6 TG transgene) (mouse),binding,[1],binds
ApoL6-GST (GST-tagged full-length ApoL6) (mouse),binding,[2],binds
same,binding,[3],binds
"endogenous Perilipin 1 (Plin1) (protein, UniProt Q8CGN5 1-517) MSMNKGPTLLDGDLPEQENVLQRVLQLPVVSGTCECFQKTYNSTKEAHPLVASVCNAYEKGVQGASNLAAWSMEPVVRRLSTQFTAANELACRGLDHLEEKIPALQYPPEKIASELKGTISTRLRSARNSISVPIASTSDKVLGATLAGCELALGMAKETAEYAANTRVGRLASGGADLALGSIEKVVEFLLPPDKESAPSSGRQRTQKAPKAKPSLVRRVSTLANTLSRHTMQTTAWALKQGHSLAMWIPGVAPLSSLAQWGASAAMQVVSRRQSEVRVPWLHNLAASQDESHDDQTDTEGEETDDEEEEEESEAEENVLREVTALPNPRGLLGGVVHTVQNTLRNTISAVTWAPAAVLGTVGRILHLTPAQAVSSTKGRAMSLSDALKGVTDNVVDTVVHYVPLPRLSLMEPESEFRDIDNPSAEAERKGSGARPASPESTPRPGQPRGSLRSVRGLSAPSCPGLDDKTEASARPGFLAMPREKPARRVSDSFFRPSVMEPILGRAQYSQLRKKS",binding,[4],binds
same,binding,[5],binds
same,binding,[6],binds
same,binding,[7],binds
"Perilipin 1-nVenus (protein, UniProt Q8CGN5 1-517) MSMNKGPTLLDGDLPEQENVLQRVLQLPVVSGTCECFQKTYNSTKEAHPLVASVCNAYEKGVQGASNLAAWSMEPVVRRLSTQFTAANELACRGLDHLEEKIPALQYPPEKIASELKGTISTRLRSARNSISVPIASTSDKVLGATLAGCELALGMAKETAEYAANTRVGRLASGGADLALGSIEKVVEFLLPPDKESAPSSGRQRTQKAPKAKPSLVRRVSTLANTLSRHTMQTTAWALKQGHSLAMWIPGVAPLSSLAQWGASAAMQVVSRRQSEVRVPWLHNLAASQDESHDDQTDTEGEETDDEEEEEESEAEENVLREVTALPNPRGLLGGVVHTVQNTLRNTISAVTWAPAAVLGTVGRILHLTPAQAVSSTKGRAMSLSDALKGVTDNVVDTVVHYVPLPRLSLMEPESEFRDIDNPSAEAERKGSGARPASPESTPRPGQPRGSLRSVRGLSAPSCPGLDDKTEASARPGFLAMPREKPARRVSDSFFRPSVMEPILGRAQYSQLRKKS",binding,ApoL6-cVenus (mouse),binds

# These are yes or no findings as the source states them, for the method shown. In cells and extracts the contact can be indirect. Binding calls can cover weak binding; strength is not graded here. For some assays here: Tags and fused reporters may be left off the sequences shown.
